# Measured values as given in paper PMC7062188, “The crystal structure of human forkhead box N1 in complex with DNA reveals the structural basis for forkhead box family specificity”.
# Target: T1, FOXN1 N-terminal region + forkhead domain (human) (UniProt O15353)
# T1 sequence (looked up, limits assumed): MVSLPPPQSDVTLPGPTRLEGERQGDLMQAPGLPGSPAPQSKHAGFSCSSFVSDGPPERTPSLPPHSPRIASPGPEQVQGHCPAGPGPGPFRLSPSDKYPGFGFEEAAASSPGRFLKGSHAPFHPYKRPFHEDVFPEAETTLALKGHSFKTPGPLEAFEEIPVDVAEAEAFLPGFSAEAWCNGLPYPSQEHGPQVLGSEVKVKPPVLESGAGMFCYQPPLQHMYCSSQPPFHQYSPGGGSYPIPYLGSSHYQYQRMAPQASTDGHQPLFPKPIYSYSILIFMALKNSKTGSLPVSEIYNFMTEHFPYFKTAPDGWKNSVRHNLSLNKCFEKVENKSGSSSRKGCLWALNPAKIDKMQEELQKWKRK
# Assay: EMSA
# Conditions: adding N-terminal region had no effect on binding relative to forkhead domain; EMSA: 50 mM Tris-HCl pH 7.5, 25 mM NaCl, 0.5 mM EDTA, 0.1% Tween 20, 2 mM DTT, 5% glycerol, 30 min room temperature; recombinant protein; label: 32P on forward strand (5', T4 PNK)
sequence,measurement,value
GCAGCAGACGCAACAGAGCGAGACGCCAGGG (double strand) [PSMA7 tandem FHL EMSA probe],binding result,no binding

# The exact form of at least one protein or probe is not confirmed. No signal at the amounts used counts as a negative. At least one verdict was read from the data and is not stated in words by the source. Protein sequences can lack the tags named with them.
